No constants are given. Whether binding was seen depends on the method and setting. Binding seen in cells or lysates may run through a third protein. These calls come from enrichment with a bait or labelling near it, and not all partners need be listed.
Biological target: Shiftless (SHFL, C19ORF66), endogenous in iSLK.WT cells (human (endogenous in iSLK.WT)) (UniProt Q9NUL5)
Assay: affinity purification with mass spectrometry

Protein sequences, listed by entry. Tags and fused reporters are not part of them.
UniProt O00571: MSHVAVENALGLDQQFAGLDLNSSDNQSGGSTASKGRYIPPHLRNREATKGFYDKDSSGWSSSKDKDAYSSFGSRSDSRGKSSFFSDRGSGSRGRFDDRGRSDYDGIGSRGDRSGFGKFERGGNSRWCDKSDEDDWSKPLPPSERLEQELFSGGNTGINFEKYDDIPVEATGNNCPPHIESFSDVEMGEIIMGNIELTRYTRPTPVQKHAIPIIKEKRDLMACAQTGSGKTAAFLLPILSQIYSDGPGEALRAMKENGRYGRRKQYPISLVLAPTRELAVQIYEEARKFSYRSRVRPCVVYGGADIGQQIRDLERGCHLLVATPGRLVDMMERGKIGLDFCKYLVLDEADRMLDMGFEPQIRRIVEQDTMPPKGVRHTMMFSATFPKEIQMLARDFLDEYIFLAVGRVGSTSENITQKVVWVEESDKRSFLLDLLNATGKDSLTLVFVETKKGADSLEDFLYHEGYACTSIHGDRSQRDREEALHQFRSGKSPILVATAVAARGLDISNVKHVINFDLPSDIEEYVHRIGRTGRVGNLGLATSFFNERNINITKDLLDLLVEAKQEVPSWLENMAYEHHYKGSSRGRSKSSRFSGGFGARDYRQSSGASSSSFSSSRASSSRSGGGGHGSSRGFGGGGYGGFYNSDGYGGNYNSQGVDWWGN
UniProt P35637: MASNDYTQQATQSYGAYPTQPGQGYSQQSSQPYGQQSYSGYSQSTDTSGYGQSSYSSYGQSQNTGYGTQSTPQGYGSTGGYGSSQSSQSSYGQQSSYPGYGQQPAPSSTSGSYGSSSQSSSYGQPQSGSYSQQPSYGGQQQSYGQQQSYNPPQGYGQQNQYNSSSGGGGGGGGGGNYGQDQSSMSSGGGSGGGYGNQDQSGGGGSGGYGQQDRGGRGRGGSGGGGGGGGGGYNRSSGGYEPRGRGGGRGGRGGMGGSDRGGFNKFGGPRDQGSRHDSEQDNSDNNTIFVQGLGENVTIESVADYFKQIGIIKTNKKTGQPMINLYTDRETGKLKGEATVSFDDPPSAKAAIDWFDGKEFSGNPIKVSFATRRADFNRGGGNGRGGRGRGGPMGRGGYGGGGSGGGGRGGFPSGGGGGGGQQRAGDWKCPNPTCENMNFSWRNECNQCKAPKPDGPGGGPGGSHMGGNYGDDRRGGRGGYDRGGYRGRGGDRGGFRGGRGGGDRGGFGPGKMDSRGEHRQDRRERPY

Row | Substance | binding
1 | DDX3X (from UniProt O00571 1-662) | binds
2 | FUS (from UniProt P35637 1-526) | binds
3 | HNRNPK (from UniProt P61978 1-463) | binds
4 | cytoplasmic poly(A) binding protein 1 (PABPC1) (from UniProt P11940 1-636) | binds

Reference: doi:10.1101/2022.02.18.480778
